# Assay results from the supplement of paper PMC12595434, “Development of retinoid nuclear receptor pathway antagonists through targeting aldehyde dehydrogenase 1A3” (iScience, 2025).
# Sequences of proteins named here, by UniProt entry; tags and fusion partners are left off. A change or cut given only in a name is not applied to a line headed by its entry.
# UniProt Q6ZU35: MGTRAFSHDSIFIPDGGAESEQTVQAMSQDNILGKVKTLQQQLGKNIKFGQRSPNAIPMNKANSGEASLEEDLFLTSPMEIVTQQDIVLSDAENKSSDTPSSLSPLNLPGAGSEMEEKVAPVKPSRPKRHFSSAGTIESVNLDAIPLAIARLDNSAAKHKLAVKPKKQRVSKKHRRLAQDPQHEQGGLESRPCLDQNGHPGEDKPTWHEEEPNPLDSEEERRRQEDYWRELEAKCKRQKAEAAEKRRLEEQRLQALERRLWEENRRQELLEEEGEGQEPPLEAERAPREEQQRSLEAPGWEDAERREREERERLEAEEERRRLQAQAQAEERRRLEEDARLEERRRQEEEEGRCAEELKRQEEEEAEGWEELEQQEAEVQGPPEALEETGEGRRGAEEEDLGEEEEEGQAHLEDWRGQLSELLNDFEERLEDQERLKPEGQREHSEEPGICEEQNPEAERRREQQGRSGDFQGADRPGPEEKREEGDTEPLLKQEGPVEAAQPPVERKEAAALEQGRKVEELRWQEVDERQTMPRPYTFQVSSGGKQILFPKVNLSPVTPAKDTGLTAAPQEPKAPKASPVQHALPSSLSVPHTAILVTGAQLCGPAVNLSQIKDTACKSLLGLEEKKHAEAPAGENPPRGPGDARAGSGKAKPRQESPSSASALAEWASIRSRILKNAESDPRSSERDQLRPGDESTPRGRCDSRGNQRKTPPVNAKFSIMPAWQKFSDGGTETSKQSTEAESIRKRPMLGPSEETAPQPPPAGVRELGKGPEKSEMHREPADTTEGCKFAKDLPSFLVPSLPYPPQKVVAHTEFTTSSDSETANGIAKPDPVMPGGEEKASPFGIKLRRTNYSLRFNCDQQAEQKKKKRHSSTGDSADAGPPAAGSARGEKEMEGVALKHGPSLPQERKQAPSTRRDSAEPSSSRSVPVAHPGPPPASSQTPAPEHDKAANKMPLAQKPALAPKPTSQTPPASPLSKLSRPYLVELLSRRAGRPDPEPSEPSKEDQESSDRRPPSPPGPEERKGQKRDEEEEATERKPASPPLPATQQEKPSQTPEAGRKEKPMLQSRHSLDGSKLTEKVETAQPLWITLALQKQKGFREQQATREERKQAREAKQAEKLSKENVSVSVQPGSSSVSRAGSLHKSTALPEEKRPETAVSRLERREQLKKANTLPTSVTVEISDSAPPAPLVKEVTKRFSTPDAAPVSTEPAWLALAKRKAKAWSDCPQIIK
# UniProt Q6UB99: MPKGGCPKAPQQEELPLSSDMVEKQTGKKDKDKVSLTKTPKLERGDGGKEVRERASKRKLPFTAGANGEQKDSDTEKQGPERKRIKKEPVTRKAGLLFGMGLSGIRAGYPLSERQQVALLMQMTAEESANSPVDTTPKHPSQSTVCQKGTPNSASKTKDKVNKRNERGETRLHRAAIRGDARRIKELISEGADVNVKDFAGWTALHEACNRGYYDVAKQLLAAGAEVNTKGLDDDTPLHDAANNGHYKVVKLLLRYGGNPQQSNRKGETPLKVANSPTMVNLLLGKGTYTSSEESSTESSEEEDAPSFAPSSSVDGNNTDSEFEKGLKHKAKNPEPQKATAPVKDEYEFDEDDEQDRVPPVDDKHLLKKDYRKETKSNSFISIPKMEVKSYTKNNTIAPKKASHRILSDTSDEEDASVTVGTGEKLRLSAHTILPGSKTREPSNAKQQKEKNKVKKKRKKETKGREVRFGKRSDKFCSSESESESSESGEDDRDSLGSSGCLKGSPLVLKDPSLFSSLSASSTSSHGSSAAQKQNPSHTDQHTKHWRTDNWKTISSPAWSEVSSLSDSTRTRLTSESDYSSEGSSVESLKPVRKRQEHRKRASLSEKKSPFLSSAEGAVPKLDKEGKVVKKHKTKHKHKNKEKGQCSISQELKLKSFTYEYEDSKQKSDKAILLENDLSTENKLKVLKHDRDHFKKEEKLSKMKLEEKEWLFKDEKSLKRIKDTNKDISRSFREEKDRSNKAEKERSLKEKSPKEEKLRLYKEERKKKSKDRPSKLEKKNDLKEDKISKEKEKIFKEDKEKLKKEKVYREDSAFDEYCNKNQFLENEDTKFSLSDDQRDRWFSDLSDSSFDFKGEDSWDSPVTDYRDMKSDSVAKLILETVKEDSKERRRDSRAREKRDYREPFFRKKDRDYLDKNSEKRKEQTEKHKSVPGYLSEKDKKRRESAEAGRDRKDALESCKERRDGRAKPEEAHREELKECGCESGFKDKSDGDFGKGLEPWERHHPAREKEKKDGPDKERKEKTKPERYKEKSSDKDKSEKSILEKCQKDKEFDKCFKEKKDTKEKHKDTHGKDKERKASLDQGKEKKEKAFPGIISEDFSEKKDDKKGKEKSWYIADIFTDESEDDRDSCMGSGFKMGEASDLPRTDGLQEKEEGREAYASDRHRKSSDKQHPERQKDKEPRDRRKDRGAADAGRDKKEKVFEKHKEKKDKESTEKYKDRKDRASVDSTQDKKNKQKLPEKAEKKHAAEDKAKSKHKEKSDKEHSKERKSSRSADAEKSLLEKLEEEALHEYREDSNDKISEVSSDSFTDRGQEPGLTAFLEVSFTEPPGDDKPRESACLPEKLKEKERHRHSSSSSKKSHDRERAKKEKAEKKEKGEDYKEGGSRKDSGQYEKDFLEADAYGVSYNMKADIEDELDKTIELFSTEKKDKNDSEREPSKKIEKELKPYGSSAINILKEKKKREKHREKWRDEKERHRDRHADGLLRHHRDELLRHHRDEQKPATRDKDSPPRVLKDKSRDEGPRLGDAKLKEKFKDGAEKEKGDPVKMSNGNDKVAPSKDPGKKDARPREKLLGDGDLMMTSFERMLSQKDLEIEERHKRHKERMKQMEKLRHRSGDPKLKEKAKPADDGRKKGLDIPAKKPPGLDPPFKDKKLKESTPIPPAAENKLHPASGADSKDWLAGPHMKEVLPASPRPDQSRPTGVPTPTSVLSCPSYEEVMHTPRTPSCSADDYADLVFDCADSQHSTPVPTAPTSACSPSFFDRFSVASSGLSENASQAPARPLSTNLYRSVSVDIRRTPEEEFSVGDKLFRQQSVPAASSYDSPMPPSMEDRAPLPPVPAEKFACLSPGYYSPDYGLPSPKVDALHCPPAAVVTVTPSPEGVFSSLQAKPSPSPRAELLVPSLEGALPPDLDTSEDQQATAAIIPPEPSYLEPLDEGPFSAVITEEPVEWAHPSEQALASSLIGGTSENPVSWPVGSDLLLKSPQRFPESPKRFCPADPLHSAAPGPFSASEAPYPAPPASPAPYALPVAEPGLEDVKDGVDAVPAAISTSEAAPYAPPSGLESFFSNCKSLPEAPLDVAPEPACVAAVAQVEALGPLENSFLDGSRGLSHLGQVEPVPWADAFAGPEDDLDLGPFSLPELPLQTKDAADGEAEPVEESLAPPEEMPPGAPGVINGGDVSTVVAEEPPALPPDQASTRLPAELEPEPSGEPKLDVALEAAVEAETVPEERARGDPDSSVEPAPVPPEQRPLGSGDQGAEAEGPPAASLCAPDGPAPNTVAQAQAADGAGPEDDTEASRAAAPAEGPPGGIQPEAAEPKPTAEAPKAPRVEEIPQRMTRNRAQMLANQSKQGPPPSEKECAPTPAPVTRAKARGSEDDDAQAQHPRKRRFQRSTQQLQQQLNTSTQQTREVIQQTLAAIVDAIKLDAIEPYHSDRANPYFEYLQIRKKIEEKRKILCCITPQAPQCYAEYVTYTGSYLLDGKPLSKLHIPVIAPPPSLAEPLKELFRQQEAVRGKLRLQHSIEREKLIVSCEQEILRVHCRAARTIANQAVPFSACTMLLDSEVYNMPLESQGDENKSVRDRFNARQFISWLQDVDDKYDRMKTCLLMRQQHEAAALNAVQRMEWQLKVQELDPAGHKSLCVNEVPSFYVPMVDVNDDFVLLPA
# UniProt Q7Z333: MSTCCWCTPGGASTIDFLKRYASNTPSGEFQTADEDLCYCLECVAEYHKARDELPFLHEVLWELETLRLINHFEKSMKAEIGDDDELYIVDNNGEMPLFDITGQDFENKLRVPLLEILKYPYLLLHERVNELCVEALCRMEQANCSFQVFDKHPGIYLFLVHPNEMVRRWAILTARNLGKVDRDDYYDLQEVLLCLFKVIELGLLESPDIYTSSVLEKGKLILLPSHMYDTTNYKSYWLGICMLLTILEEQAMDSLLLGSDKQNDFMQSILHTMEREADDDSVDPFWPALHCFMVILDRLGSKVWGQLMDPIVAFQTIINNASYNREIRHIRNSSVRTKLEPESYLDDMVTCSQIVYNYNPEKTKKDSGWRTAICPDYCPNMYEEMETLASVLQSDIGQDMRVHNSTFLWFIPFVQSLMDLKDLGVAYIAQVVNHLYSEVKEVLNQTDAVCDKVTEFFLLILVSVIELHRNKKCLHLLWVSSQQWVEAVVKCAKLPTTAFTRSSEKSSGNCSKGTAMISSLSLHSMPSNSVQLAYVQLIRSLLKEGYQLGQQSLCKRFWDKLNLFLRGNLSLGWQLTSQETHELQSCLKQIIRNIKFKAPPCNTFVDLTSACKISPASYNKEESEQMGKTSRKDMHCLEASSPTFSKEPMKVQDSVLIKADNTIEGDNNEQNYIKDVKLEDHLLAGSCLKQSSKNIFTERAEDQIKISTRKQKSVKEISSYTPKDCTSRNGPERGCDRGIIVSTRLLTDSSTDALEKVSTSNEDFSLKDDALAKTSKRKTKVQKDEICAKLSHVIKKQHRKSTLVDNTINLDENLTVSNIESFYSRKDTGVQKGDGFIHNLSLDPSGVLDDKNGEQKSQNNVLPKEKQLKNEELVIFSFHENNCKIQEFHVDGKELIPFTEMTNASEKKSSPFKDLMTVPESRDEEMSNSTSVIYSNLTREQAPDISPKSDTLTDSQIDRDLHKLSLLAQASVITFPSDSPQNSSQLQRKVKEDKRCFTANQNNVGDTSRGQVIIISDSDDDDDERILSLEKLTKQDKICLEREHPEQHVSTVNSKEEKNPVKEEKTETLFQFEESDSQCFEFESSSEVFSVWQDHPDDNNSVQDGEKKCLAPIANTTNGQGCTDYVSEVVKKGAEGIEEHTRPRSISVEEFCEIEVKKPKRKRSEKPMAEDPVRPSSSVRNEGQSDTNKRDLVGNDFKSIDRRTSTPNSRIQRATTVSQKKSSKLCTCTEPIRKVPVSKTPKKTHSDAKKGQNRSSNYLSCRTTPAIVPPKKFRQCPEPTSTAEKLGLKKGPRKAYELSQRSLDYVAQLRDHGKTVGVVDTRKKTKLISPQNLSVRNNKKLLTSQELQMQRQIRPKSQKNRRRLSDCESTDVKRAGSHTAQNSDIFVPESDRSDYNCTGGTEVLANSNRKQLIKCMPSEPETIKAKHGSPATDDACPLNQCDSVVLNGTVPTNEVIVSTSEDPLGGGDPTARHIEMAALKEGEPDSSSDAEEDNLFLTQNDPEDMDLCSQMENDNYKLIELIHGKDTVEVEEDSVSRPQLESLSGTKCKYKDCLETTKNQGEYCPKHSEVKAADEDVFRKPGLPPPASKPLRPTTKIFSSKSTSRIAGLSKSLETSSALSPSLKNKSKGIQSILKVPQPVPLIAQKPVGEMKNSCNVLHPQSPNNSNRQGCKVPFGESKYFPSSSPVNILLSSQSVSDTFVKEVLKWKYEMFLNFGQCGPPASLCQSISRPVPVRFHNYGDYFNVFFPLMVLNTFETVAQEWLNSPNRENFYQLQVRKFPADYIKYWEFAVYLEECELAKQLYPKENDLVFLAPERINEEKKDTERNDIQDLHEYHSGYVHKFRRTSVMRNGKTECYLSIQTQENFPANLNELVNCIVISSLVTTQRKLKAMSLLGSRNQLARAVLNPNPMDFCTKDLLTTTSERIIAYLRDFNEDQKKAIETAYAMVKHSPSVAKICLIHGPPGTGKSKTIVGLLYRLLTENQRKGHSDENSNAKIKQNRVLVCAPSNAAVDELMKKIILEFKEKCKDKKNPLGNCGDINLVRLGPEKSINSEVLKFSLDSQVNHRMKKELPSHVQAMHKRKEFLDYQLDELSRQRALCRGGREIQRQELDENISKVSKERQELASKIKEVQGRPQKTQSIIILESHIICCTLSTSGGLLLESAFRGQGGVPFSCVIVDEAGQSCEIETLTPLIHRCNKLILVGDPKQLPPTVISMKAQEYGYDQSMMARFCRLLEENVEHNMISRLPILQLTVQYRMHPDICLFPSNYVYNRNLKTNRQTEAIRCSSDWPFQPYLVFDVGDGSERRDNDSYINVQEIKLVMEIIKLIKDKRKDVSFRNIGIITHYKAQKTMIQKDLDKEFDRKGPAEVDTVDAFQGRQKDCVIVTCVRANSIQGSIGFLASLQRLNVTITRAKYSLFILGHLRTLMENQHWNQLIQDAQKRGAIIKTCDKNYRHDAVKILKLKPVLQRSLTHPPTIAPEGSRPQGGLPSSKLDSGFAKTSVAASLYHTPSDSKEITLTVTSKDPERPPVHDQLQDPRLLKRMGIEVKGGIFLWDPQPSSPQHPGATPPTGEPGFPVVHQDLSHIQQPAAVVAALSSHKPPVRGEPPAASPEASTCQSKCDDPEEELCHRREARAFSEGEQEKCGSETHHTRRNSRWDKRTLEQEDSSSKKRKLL
# The other results are listed elsewhere or left out. Single values of this set are uncertain.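 Tm was set to 64 °C where no melting was found, and many curves are irregular.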
# Compound: CCc1cnccc1C(=O)Nc1cc2c(cc1F)NC(=O)CC2
# Test: melting temperature shift (DMSO Tm minus MBE1-treated Tm) in cellular thermal proteome profiling; higher = less thermal stabilization by MBE1 (negative = stabilized by MBE1)
# Conditions: A375
Target,melting temperature shift (MBE1 concentration: 100 nM) [°C],melting temperature shift (MBE1 concentration: 1 uM) [°C]
TRIM65 (UniProt Q6PJ69),-0.895,-0.527
DARS2 (UniProt Q6PI48),-1.59,0.561
UniProt Q7Z7C8,-0.972,0.232
DHX29 (UniProt Q7Z478),0.421,0.769
ZNF598 (UniProt Q86UK7),-0.875,-0.565
YRDC (UniProt Q86U90),-0.456,-0.295
TXNDC11 (UniProt Q6PKC3),-0.852,1.07
ZBTB33 (UniProt Q86T24),-1.28,-1.45
EFL1 (UniProt Q7Z2Z2),0.757,-0.14
QSOX2 (UniProt Q6ZRP7),-1.18,0.597
FIGNL1 (UniProt Q6PIW4),0.141,-0.231
DPP8 (UniProt Q6V1X1),-1.15,1.29
TAOK1 (UniProt Q7L7X3),0.195,0.458
SRGAP1 (UniProt Q7Z6B7),1.04,0.47
UniProt Q86UB9,-1.46,-0.838
UBR3 (UniProt Q6ZT12),0.104,-0.87
UniProt Q6ZU35,-1.14,2.57
UniProt Q6UB99,-5.98,0.807
CCDC174 (UniProt Q6PII3),-2.83,-3.29
SETX (UniProt Q7Z333),-0.235,2.02
TTC21B (UniProt Q7Z4L5),-1.22,-7.99
TRAPPC6B (UniProt Q86SZ2),-0.208,-0.0604
DNMBP (UniProt Q6XZF7),-0.626,-0.353

# Individual results from the entries so far:
# UBR3 (UniProt Q6ZT12) | melting temperature shift (MBE1 concentration: 1 uM) [°C]: -0.87
# TRAPPC6B (UniProt Q86SZ2) | melting temperature shift (MBE1 concentration: 100 nM) [°C]: -0.208
